Experimental data: PubChem BioAssay AID1259424 (University of Nebraska Medical Center, 2018)
Assay: 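Seek colon cancer survival genes behaving like KSR1, using a six-gene signature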 (primary screen). Cell system: human HCT116 colon cancer cells. Reagent: siRNA pool against human genes, 50 nM. Read-out: 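Six signature mRNAs by branched-DNA multiplex assay, scaled to two housekeeping genes and non-targeting median, log2; matched to mean KSR1 knockdown profile by Pearson correlation and euclidean distance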. Reading the numbers: mean correlation with KSR1 profile: higher = expression change more like KSR1 knockdown.
The whole screen tested about 14,000 reagents; below is a random part of them. 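Higher correlation or smaller distance means closer resemblance to KSR1 loss; control wells, including KSR1 knockdowns, recur on many plates.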 Further read-outs or replicates are left out here. Reagent sequences are not shown. Not given: the time to read-out.

NRP1 (neuropilin 1)
- mean correlation with KSR1 profile: 0.857

TSC2 (TSC complex subunit 2)
- mean correlation with KSR1 profile: -0.275

LHFPL6 (LHFPL tetraspan subfamily member 6)
- mean correlation with KSR1 profile: 0.287

RIOK1 (RIO kinase 1)
- mean correlation with KSR1 profile: 0.44

S100A4 (S100 calcium binding protein A4)
- mean correlation with KSR1 profile: 0.566

PYGB (glycogen phosphorylase B)
- mean correlation with KSR1 profile: -0.442

SIDT2 (SID1 transmembrane family member 2)
- mean correlation with KSR1 profile: -0.145

TBC1D10B (TBC1 domain family member 10B)
- mean correlation with KSR1 profile: -0.116

SPATA6L (spermatogenesis associated 6 like)
- mean correlation with KSR1 profile: -0.142

F12 (coagulation factor XII)
- mean correlation with KSR1 profile: 0.428

PLCL1 (phospholipase C like 1 (inactive))
- mean correlation with KSR1 profile: -0.444

SPN (sialophorin)
- mean correlation with KSR1 profile: -0.0468

ITPR2 (inositol 1,4,5-trisphosphate receptor type 2)
- mean correlation with KSR1 profile: 0.0386

PPIP5K1 (diphosphoinositol pentakisphosphate kinase 1)
- mean correlation with KSR1 profile: -0.351

TTBK2 (tau tubulin kinase 2)
- mean correlation with KSR1 profile: -0.176

FAM167A-AS1 (FAM167A antisense RNA 1)
- mean correlation with KSR1 profile: 0.761

ALDOC (aldolase, fructose-bisphosphate C)
- mean correlation with KSR1 profile: -0.271

ENO2 (enolase 2)
- mean correlation with KSR1 profile: -0.918

ARFGAP1 (ARF GTPase activating protein 1)
- mean correlation with KSR1 profile: 0.536

A run of entries of the results above, for reference:
F12 (coagulation factor XII)
- mean correlation with KSR1 profile: 0.428

PLCL1 (phospholipase C like 1 (inactive))
- mean correlation with KSR1 profile: -0.444
